These are yes or no findings as the source states them, for the method shown. Binding seen in cells or lysates may run through a third protein. A yes stands for co-enrichment or nearness to the bait. Other partners may have been found. Where a sequence is shown, tags or fusion partners need not be part of it. Values belong to the molecule of their own block, whether it stands above or below them.
Legend:
[1] = target: T1, NoxO1-BioID2 fusion construct (human) (UniProt Q8NFA2); assay: proximity labelling; BioID: N- or C-terminal NoxO1-BioID2 fusion transiently overexpressed in Hek293 without Nox1 and NoxA1; 50 uM biotin 24 h; streptavidin C1 magnetic beads; GelC-MS2, label-free quantitation; BioID2 only as control
T1 sequence: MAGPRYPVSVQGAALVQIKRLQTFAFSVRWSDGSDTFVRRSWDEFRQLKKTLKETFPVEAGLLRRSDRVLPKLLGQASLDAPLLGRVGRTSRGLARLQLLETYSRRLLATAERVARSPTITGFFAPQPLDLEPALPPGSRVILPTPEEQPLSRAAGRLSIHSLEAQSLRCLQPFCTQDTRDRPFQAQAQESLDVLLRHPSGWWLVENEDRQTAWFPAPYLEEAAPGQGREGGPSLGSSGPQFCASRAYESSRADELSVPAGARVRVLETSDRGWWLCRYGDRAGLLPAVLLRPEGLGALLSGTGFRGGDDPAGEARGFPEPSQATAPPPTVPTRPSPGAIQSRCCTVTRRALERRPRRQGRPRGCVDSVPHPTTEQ

Sequences of proteins named here, by UniProt entry; tags and fusion partners are left off.
UniProt Q96RT1: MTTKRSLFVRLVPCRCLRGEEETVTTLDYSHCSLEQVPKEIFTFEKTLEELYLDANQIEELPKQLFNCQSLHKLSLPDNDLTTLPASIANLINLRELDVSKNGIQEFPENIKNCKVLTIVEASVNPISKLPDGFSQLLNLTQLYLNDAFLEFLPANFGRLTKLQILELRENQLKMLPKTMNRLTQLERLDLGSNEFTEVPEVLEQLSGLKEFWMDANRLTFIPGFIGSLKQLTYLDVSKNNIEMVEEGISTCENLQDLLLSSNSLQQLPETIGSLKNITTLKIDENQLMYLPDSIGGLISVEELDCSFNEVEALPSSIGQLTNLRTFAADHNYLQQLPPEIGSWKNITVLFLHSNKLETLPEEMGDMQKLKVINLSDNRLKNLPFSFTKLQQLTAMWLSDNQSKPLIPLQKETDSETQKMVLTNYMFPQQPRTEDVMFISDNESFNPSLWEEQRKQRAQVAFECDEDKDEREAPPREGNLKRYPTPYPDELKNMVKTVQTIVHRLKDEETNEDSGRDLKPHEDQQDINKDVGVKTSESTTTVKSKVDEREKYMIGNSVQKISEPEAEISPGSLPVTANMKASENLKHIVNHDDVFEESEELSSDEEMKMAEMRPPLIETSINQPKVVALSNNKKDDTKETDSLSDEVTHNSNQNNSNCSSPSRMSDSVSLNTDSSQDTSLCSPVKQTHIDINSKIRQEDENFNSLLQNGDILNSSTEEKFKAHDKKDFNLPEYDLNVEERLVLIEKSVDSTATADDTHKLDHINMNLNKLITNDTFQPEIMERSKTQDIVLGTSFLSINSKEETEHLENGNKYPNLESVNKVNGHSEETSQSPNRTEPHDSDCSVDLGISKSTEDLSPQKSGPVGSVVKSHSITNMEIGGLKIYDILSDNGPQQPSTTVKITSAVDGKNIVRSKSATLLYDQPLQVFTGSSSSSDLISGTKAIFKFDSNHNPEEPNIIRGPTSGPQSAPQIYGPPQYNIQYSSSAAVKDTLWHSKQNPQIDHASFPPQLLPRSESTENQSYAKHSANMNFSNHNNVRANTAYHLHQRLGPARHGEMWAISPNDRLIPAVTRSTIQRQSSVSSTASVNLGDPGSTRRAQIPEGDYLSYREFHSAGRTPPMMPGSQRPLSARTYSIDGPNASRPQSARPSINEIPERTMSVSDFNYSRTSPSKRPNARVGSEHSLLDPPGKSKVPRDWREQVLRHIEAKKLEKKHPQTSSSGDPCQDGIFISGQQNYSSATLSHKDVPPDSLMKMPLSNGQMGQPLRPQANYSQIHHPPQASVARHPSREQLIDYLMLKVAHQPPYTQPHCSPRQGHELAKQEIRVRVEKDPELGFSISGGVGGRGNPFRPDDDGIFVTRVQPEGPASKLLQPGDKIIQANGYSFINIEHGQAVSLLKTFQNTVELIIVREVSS

[2] = target: T1, NoxO1-BioID2 fusion construct (human); assay: proximity labelling; BioID: biotinylated proteins precipitated with streptavidin Dynabeads from Hek293 overexpressing NoxO1-BioID2 or empty vector; detection by Western blot
[3] = target: T1, NoxO1-BioID2 fusion construct (human); assay: proximity labelling; BioID as a1, but with Nox1 and NoxA1 overexpressed together with NoxO1-BioID; read out by mass spectrometry

- binding [1]: binds
Molecule: ErbB2 interacting protein (Erbin) (from UniProt Q96RT1 1-1412)

- binding [2]: binds
Molecule: Epidermal growth factor receptor (EGFR) (from UniProt P00533 25-1210)

- binding [3]: binds
B1: NoxA1 (protein, UniProt Q86UR1 1-476)
chain: MASLGDLVRAWHLGAQAVDRGDWARALHLFSGVPAPPARLCFNAGCVHLLAGDPEAALRAFDQAVTKDTCMAVGFFQRGVANFQLARFQEALSDFWLALEQLRGHAAIDYTQLGLRFKLQAWEVLHNVASAQCQLGLWTEAASSLREAMSKWPEGSLNGLDSALDQVQRRGSLPPRQVPRGEVFRPHRWHLKHLEPVDFLGKAKVVASAIPDDQGWGVRPQQPQGPGANHDARSLIMDSPRAGTHQGPLDAETEVGADRCTSTAYQEQRPQVEQVGKQAPLSPGLPAMGGPGPGPCEDPAGAGGAGAGGSEPLVTVTVQCAFTVALRARRGADLSSLRALLGQALPHQAQLGQLSYLAPGEDGHWVPIPEEESLQRAWQDAAACPRGLQLQCRGAGGRPVLYQVVAQHSYSAQGPEDLGFRQGDTVDVLCEVDQAWLEGHCDGRIGIFPKCFVVPAGPRMSGAPGRLPRSQQGDQP

From article PMC11536020
